According to PubChem BioAssay AID228 (DTP/NCI, 2004):
The list shows only some results of the screen, not a fair sample: it gathers some chemical classes. Other doses and runs of a compound may be missing. T/C: endpoint of the treated group in % of that of the vehicle group. Some entries show no survivor count and are marked so; the dose need not have been tolerated. Schedules are NCI's codes, read here as Q, the interval in days (D) or hours (H), X, the number of doses. Some entries were tested several times; their values stand side by side, smallest first.

Tested on: BDF1 mice, Friend leukemia sc, tumor weight T/C
Assay: NCI In Vivo Anticancer Drug Screen. Data for tumor model Friend Virus Leukemia (Solid) (subcutaneous) in B6D2F1 (BDF1) mice
Details: T/C endpoint: mean tumor weight, schedule: Q01DX011 (ip), evaluation day not shown, higher T/C = larger tumour
Experimental: The antitumor activity of compounds was measured in mice bearing transplantable tumors. Survival or tumor size were measured and the results are expressed as the measurement made in the treated group (T) divided by the measurement made in the vehicle treated control group (C). The tumor model used in this assay is Friend Virus Leukemia (Solid) (subcutaneous) in B6D2F1 (BDF1) mice

[1] = dose: 2.0 mg/kg/injection, vehicle: carboxymethylcellulose (CMC)
[2] = dose: 2.5 mg/kg/injection, vehicle: carboxymethylcellulose (CMC)
[3] = dose: 3.0 mg/kg/injection, vehicle: carboxymethylcellulose (CMC)
[4] = dose: 12.5 mg/kg/injection, vehicle: carboxymethylcellulose (CMC)
[5] = dose: 25.0 mg/kg/injection, vehicle: carboxymethylcellulose (CMC)
[6] = dose: 1.0 mg/kg/injection, vehicle: carboxymethylcellulose (CMC)
[7] = dose: 5.0 mg/kg/injection, vehicle: carboxymethylcellulose (CMC)
[8] = dose: 10.0 mg/kg/injection, vehicle: carboxymethylcellulose (CMC)

NC(Cc1cccc(N(CCCl)CCCl)c1)C(=O)O (centres undefined)
T/C [1]: 55 % of control [survivor count not shown]
T/C [2]: 48 % of control [survivor count not shown]
T/C [3]: 17 % of control [survivor count not shown]

ClCCN(CCCl)Cc1nc2cc(Cl)c(Cl)cc2[nH]1
T/C [4]: 116 % of control [survivor count not shown]
T/C [5]: 73 % of control [survivor count not shown]
T/C (dose: 50.0 mg/kg/injection, vehicle: carboxymethylcellulose (CMC)): 63 [survivor count not shown] and 101 % of control [survivor count not shown]
T/C (dose: 100.0 mg/kg/injection, vehicle: carboxymethylcellulose (CMC)): 56 % of control [survivor count not shown]

ClCCN(CCCl)Cc1nc2ccccc2[nH]1
T/C (dose: 1.87 mg/kg/injection, vehicle: saline): 131 % of control [survivor count not shown]
T/C (dose: 2.5 mg/kg/injection, vehicle: saline): 108 % of control [survivor count not shown]
T/C (dose: 3.75 mg/kg/injection, vehicle: saline): 86 % of control [survivor count not shown]
T/C (dose: 5.0 mg/kg/injection, vehicle: saline): 83 % of control [survivor count not shown]
T/C (dose: 7.5 mg/kg/injection, vehicle: carboxymethylcellulose (CMC)): 30 % of control [survivor count not shown]

Oc1c(SCCCl)c(SCCCl)c(O)c(SCCCl)c1SCCCl
T/C (dose: 63.0 mg/kg/injection, vehicle: carboxymethylcellulose (CMC)): 101 % of control [survivor count not shown]
T/C (dose: 125.0 mg/kg/injection, vehicle: carboxymethylcellulose (CMC)): 73 % of control [survivor count not shown]
T/C (dose: 250.0 mg/kg/injection, vehicle: carboxymethylcellulose (CMC)): 97 % of control [survivor count not shown]
T/C (dose: 500.0 mg/kg/injection, vehicle: carboxymethylcellulose (CMC)): 83 % of control [survivor count not shown]

ClCCN(CCCl)Cc1nc2ccc(Cl)cc2[nH]1
T/C (dose: 6.25 mg/kg/injection, vehicle: carboxymethylcellulose (CMC)): 147 % of control [survivor count not shown]
T/C [4]: 78 % of control [survivor count not shown]
T/C [5]: 55 % of control [survivor count not shown]

CC(C(=O)O)N(CCCl)CCCl (centres undefined)
T/C (dose: 0.5 mg/kg/injection, vehicle: carboxymethylcellulose (CMC)): 108 % of control [survivor count not shown]
T/C [6]: 125 % of control [survivor count not shown]
T/C [1]: 131 % of control [survivor count not shown]
T/C (dose: 4.2 mg/kg/injection, vehicle: carboxymethylcellulose (CMC)): 107 % of control [survivor count not shown]

O=C(O)C(=O)Cc1ccc(N(CCCl)CCCl)cc1
T/C [6]: 95 % of control [survivor count not shown]
T/C [3]: 90 % of control [survivor count not shown]
T/C (dose: 6.0 mg/kg/injection, vehicle: carboxymethylcellulose (CMC)): 52 [survivor count not shown] and 60 % of control [survivor count not shown]
T/C (dose: 12.0 mg/kg/injection, vehicle: carboxymethylcellulose (CMC)): 39 [survivor count not shown] and 69 % of control [survivor count not shown]
T/C [5]: 26 % of control [survivor count not shown]

Oc1ccc(Cl)cc1CN(CCCl)CCCl
T/C [2]: 106 % of control [survivor count not shown]
T/C [7]: 82 % of control [survivor count not shown]
T/C [8]: 60 [survivor count not shown] and 74 % of control [survivor count not shown]
T/C (dose: 20.0 mg/kg/injection, vehicle: carboxymethylcellulose (CMC)): 55 % of control [survivor count not shown]

O=C(O)CN(CCCl)CCCl
T/C (dose: 0.9 mg/kg/injection, vehicle: saline): 92 % of control [survivor count not shown]
T/C (dose: 1.25 mg/kg/injection, vehicle: carboxymethylcellulose (CMC)): 87 % of control [survivor count not shown]
T/C (dose: 1.75 mg/kg/injection, vehicle: saline): 127 % of control [survivor count not shown]
T/C [2]: 77 % of control [survivor count not shown]
T/C (dose: 3.5 mg/kg/injection, vehicle: saline): 100 % of control [survivor count not shown]
T/C [7]: 68 % of control [survivor count not shown]
T/C (dose: 7.0 mg/kg/injection, vehicle: saline): 58 % of control [survivor count not shown]
T/C [8]: 60 % of control [survivor count not shown]

ClCCNCCCl
T/C (dose: 25.0 mg/kg/injection, vehicle: saline): 201 % of control [survivor count not shown]
T/C (dose: 37.5 mg/kg/injection, vehicle: saline): 132 % of control [survivor count not shown]
T/C (dose: 50.0 mg/kg/injection, vehicle: saline): 13 [survivor count not shown] and 55 % of control [survivor count not shown]
T/C (dose: 75.0 mg/kg/injection, vehicle: saline): 76 % of control [survivor count not shown]
